Data taken from patent US20170115269A1, “ACYLCARNITINE COMPOSITION” (SEKISUI MEDICAL CO., LTD., priority 2014, published 2017).
Some of these results come from one statement about several compounds together. At least one structure is not confirmed: it was looked up by name or label, or the drawing left a doubt. Some ranges recur; such a range may be that of the whole group of compounds.

experiment: Example 3: stability of acylcarnitine (C0 to C18)-stable isotopes in ethanol containing 1% formic acid; format: physicochemical; details: ethanol containing 1% (v/v) formic acid, mixture of 12 acylcarnitines, 45° C., 24 hours

**Q.** For `[2H]C([2H])([2H])[N+](CC(CC(=O)[O-])OC(=O)CCCCCCCCCCCCC)(C([2H])([2H])[2H])C([2H])([2H])[2H]` (centres unmarked) [^2H9-Myristoylcarnitine], which residual rate is on record?
**A.** The residual rate was 94.8% to 103.3.

**Q.** Which residual rate does the source give for `[2H]C([2H])([2H])[N+](C[C@H](O)CC(=O)[O-])(C([2H])([2H])[2H])C([2H])([2H])[2H]` [^2H9-Carnitine] here?
**A.** Its residual rate is 94.8% to 103.3.

**Q.** With `[2H]C([2H])([2H])[N+](C)(C)CC(CC(=O)[O-])OC(=O)CCCCCCCCCCCCCCC` (centres unmarked) [^2H3-Palmitoylcarnitine] as the compound, how does the residual rate read?
**A.** The residual rate was 94.8% to 103.3.

**Q.** For `[2H]C([2H])([2H])[N+](C)(C)CC(CC(=O)[O-])OC(=O)CCCCCCCCCCCCCCCCC` (centres unmarked) [^2H3-Octadecanoylcarnitine], which residual rate is on record?
**A.** Its residual rate is 94.8% to 103.3.

**Q.** For `[2H]C([2H])([2H])[N+](CC(CC(=O)[O-])OC(=O)CC(C)C)(C([2H])([2H])[2H])C([2H])([2H])[2H]` (centres unmarked) [^2H9-Isovalerylcarnitine], which residual rate is on record?
**A.** Its residual rate is 94.8% to 103.3.

**Q.** For `[2H]C([2H])([2H])[N+](C)(C)CC(CC(=O)[O-])OC(=O)CCCCCCCCCCC` (centres unmarked) [^2H3-Dodecanoylcarnitine], which residual rate is on record?
**A.** The residual rate was 94.8% to 103.3.

**Q.** Which residual rate does the source give for `[2H]C([2H])([2H])[N+](C)(C)CC(CC(=O)[O-])OC(=O)CCC` (centres unmarked) [^2H3-Butyrylcarnitine] here?
**A.** Its residual rate is 94.8% to 103.3.

**Q.** For `[2H]C([2H])([2H])[N+](C)(C)CC(CC(=O)[O-])OC(=O)CC` (centres unmarked) [^2H3-Propionylcarnitine], which residual rate is on record?
**A.** The residual rate was 94.8% to 103.3.

**Q.** For `[2H]C([2H])([2H])[N+](C)(C)CC(CC(=O)[O-])OC(=O)CCCC(=O)O` (centres unmarked) [^2H3-Glutarylcarnitine], which residual rate is on record?
**A.** Its residual rate is 94.8% to 103.3.

**Q.** For `[2H]C([2H])([2H])[N+](C)(C)CC(CC(=O)[O-])OC(=O)CC(C)(C)O` (centres unmarked) [^2H3-(3-Hydroxyisovaleryl)-carnitine], which residual rate is on record?
**A.** The residual rate was 94.8% to 103.3.

**Q.** Which residual rate does the source give for `[2H]C([2H])([2H])[N+](C)(C)CC(CC(=O)[O-])OC(=O)CCCCCCC` (centres unmarked) [^2H3-Octanoylcarnitine] here?
**A.** Its residual rate is 94.8% to 103.3.
